Record: PubChem BioAssay AID1259327 (Drosophila RNAi Screening Center, 2017)
The deposit covers about 3,100 reagents; below is a random part of them. 378 of all reagents (12%) were called active. 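Hits include both directions; z-score sign shows ATP rise or fall; raw luminescence values are not plate-normalised.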 A number with no mark means an inactive call. Not given: the amount of reagent.

- Screen: 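Knock-downs altering cellular ATP with no metal added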
- System: Drosophila S2R+ cells
- Reagent: long dsRNA against Drosophila genes
- Timing: 5 days (water added on day 4, read one day later)
- Challenge: water added as vehicle, no metal, one day before read-out
- Read-out: 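Total ATP measured by luciferase light, scaled to plate mean, duplicates averaged, then z-scored across plates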
- Reading the numbers: ATP z-score: higher = more total ATP than typical wells; ATP luminescence: higher = more total ATP
- Hit rule: 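a hit is any knock-down whose absolute ATP z-score is greater than 1.5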
- Calls: active = hit: ATP up or down; inactive = no clear ATP change

What did the screen give for Flo2 [DRSC19062]?
ATP z-score, duplicate mean: 1.1; ATP luminescence, replicate 1 (RLU): 7.85e5; ATP luminescence, replicate 2 (RLU): 6.53e5

For Flo2 [DRSC20244], what does the deposit list?
ATP z-score, duplicate mean: -1.12; ATP luminescence, replicate 1 (RLU): 5.96e5; ATP luminescence, replicate 2 (RLU): 9.46e5

Which result is listed for CG6927 [DRSC18407]?
ATP z-score, duplicate mean: 0.557; ATP luminescence, replicate 1 (RLU): 7.75e5; ATP luminescence, replicate 2 (RLU): 7.52e5

For CG6927 [DRSC39725], what does the deposit list?
ATP z-score, duplicate mean: 0.253; ATP luminescence, replicate 1 (RLU): 5.05e5; ATP luminescence, replicate 2 (RLU): 4.59e5

With mrva [DRSC21842], what was measured?
ATP z-score, duplicate mean: 1.02; ATP luminescence, replicate 1 (RLU): 7.98e5; ATP luminescence, replicate 2 (RLU): 5.33e5

What did the screen give for mrva [DRSC25508]?
ATP z-score, duplicate mean: -0.829; ATP luminescence, replicate 1 (RLU): 6.61e5; ATP luminescence, replicate 2 (RLU): 8.35e5

For Tsp47F [DRSC07325], how do the results read?
ATP z-score, duplicate mean: 0.235; ATP luminescence, replicate 1 (RLU): 7.18e5; ATP luminescence, replicate 2 (RLU): 5.63e5

For CG14160 [DRSC10161], what was measured?
ATP z-score, duplicate mean: 0.212; ATP luminescence, replicate 1 (RLU): 9.83e5; ATP luminescence, replicate 2 (RLU): 8.66e5

What did the screen give for Ac78C [DRSC11602]?
ATP z-score, duplicate mean: -0.128; ATP luminescence, replicate 1 (RLU): 9.16e5; ATP luminescence, replicate 2 (RLU): 8.44e5

With Ac78C [DRSC11619], what does the deposit list?
ATP z-score, duplicate mean: 0.816; ATP luminescence, replicate 1 (RLU): 8.55e5; ATP luminescence, replicate 2 (RLU): 8.05e5

What did the screen give for CG13078 [DRSC02182]?
ATP z-score, duplicate mean: 1.15; ATP luminescence, replicate 1 (RLU): 8.74e5; ATP luminescence, replicate 2 (RLU): 8.24e5

What did the screen give for RyR [DRSC07543]?
ATP z-score, duplicate mean: -0.711; ATP luminescence, replicate 1 (RLU): 5.78e5; ATP luminescence, replicate 2 (RLU): 5.32e5

For RyR [DRSC39632], how do the results read?
ATP z-score, duplicate mean: 1.19; ATP luminescence, replicate 1 (RLU): 5.24e5; ATP luminescence, replicate 2 (RLU): 5.68e5

What did the screen give for Oatp58Dc [DRSC04363]?
ATP z-score, duplicate mean: 0.356; ATP luminescence, replicate 1 (RLU): 6.85e5; ATP luminescence, replicate 2 (RLU): 8.56e5

With Oatp58Dc [DRSC39686], what does the deposit list?
ATP z-score, duplicate mean: 0.218; ATP luminescence, replicate 1 (RLU): 4.44e5; ATP luminescence, replicate 2 (RLU): 5.17e5

What is on record for KCNQ [DRSC06230]?
ATP z-score, duplicate mean: -0.736; ATP luminescence, replicate 1 (RLU): 5.09e5; ATP luminescence, replicate 2 (RLU): 5.97e5

What is on record for KCNQ [DRSC25242]?
ATP z-score, duplicate mean: -1.35; ATP luminescence, replicate 1 (RLU): 7.53e5; ATP luminescence, replicate 2 (RLU): 6.12e5

Which result is listed for CG3625 [DRSC00008]?
ATP z-score, duplicate mean: -1.14; ATP luminescence, replicate 1 (RLU): 6.20e5; ATP luminescence, replicate 2 (RLU): 6.18e5

How did the screen score CG3625 [DRSC00621]?
ATP z-score, duplicate mean: -0.313; ATP luminescence, replicate 1 (RLU): 4.19e5; ATP luminescence, replicate 2 (RLU): 4.98e5

With CG9447 [DRSC05008], what was measured?
ATP z-score, duplicate mean: -0.648; ATP luminescence, replicate 1 (RLU): 5.73e5; ATP luminescence, replicate 2 (RLU): 5.49e5

With trn [DRSC11407], what was measured?
ATP z-score, duplicate mean: 2.13 (active); ATP luminescence, replicate 1 (RLU): 1.27e6; ATP luminescence, replicate 2 (RLU): 1.09e6

How did the screen score Ac76E [DRSC09642]?
ATP z-score, duplicate mean: 2.12 (active); ATP luminescence, replicate 1 (RLU): 6.44e5; ATP luminescence, replicate 2 (RLU): 6.62e5

Which result is listed for Ac76E [DRSC09662]?
ATP z-score, duplicate mean: -1.99 (active); ATP luminescence, replicate 1 (RLU): 5.01e5; ATP luminescence, replicate 2 (RLU): 5.35e5

How did the screen score CG3164 [DRSC00572]?
ATP z-score, duplicate mean: 0.973; ATP luminescence, replicate 1 (RLU): 8.32e5; ATP luminescence, replicate 2 (RLU): 7.81e5

3 entries from above, reformatted:
CG3625 [DRSC00621]
- ATP z-score, duplicate mean: -0.313
- ATP luminescence, replicate 1 (RLU): 4.19e5
- ATP luminescence, replicate 2 (RLU): 4.98e5

CG9447 [DRSC05008]
- ATP z-score, duplicate mean: -0.648
- ATP luminescence, replicate 1 (RLU): 5.73e5
- ATP luminescence, replicate 2 (RLU): 5.49e5

trn [DRSC11407]
- ATP z-score, duplicate mean: 2.13 (active)
- ATP luminescence, replicate 1 (RLU): 1.27e6
- ATP luminescence, replicate 2 (RLU): 1.09e6
